Experimental data: PubChem BioAssay AID1159579 (Peter MacCallum Cancer Centre, 2015)
Assay: 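Follow-up screen seeking modulators of motility in lymphatic endothelial cells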 (follow-up of hits). Cell system: human dermal lymphatic endothelial cells. Reagent: single siRNA against human genes, 25 nM. Read-out: 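High content images of wound closure area and cell nuclei counts, each the average of two wells, expressed against mock transfection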. Reading the numbers: migration relative to mock: higher = more migration into the scratch; mean nuclei count: higher = more cells remaining. Call rule: 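a ratio of at most 0.6 or at least 1.3 marks altered migration and an active call; a mean nuclei count under 3300 forces an inactive call regardless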. Meaning of the calls: active = migration changed (impaired or accelerated); inactive = no migration change, or too few cells.
Shown is an unselected part of about 2,000 reagents. Over the whole deposit, 549 (27%) are marked active. 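Some migration ratios are negative; siRNAs with too few cells are inactive whatever their migration ratio.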 Reagents against one gene are numbered here. Not all columns of the deposit are shown. The record does not give: the time to read-out.

Target gene | reagent | migration relative to mock | mean nuclei count | activity call
GCGR (glucagon receptor) | 1 | 0.37 | 4555 | active
GCGR (glucagon receptor) | 2 | 0.05 | 3918 | active
GCGR (glucagon receptor) | 3 | 0.03 | 5178 | active
GCGR (glucagon receptor) | 4 | 0.8 | 6365 | inactive
APOBEC3D (apolipoprotein B mRNA editing enzyme catalytic subunit 3D) | 1 | 0.57 | 5344 | active
APOBEC3D (apolipoprotein B mRNA editing enzyme catalytic subunit 3D) | 2 | -0.02 | 4121 | active
APOBEC3D (apolipoprotein B mRNA editing enzyme catalytic subunit 3D) | 3 | 0.51 | 4626 | active
APOBEC3D (apolipoprotein B mRNA editing enzyme catalytic subunit 3D) | 4 | 0.86 | 5455 | inactive
FGF4 (fibroblast growth factor 4) | 1 | 1.54 | 5156 | active
FGF4 (fibroblast growth factor 4) | 2 | 0.78 | 4668 | inactive
FGF4 (fibroblast growth factor 4) | 3 | 0.79 | 4962 | inactive
FGF4 (fibroblast growth factor 4) | 4 | 1.04 | 5242 | inactive
FGFR3 (fibroblast growth factor receptor 3) | 1 | 0.88 | 6050 | inactive
FGFR3 (fibroblast growth factor receptor 3) | 2 | -1.68 | 864 | inactive
FGFR3 (fibroblast growth factor receptor 3) | 3 | 0.64 | 4916 | inactive
FGFR3 (fibroblast growth factor receptor 3) | 4 | 0.96 | 5592 | inactive
PCDHB3 (protocadherin beta 3) | 1 | 1.03 | 6680 | inactive
PCDHB3 (protocadherin beta 3) | 2 | 0.72 | 4335 | inactive
PCDHB3 (protocadherin beta 3) | 3 | 0.84 | 5314 | inactive
PCDHB3 (protocadherin beta 3) | 4 | 1.15 | 6139 | inactive
HLX (H2.0 like homeobox) | 1 | -0.84 | 2470 | inactive
HLX (H2.0 like homeobox) | 2 | 0.82 | 4268 | inactive
HLX (H2.0 like homeobox) | 3 | 0.32 | 5730 | active
HLX (H2.0 like homeobox) | 4 | 0.68 | 5461 | inactive
KLHDC4 (kelch domain containing 4) | 1 | 0.8 | 5029 | inactive
KLHDC4 (kelch domain containing 4) | 2 | 1.25 | 4419 | inactive
KLHDC4 (kelch domain containing 4) | 3 | 0.52 | 5438 | active
KLHDC4 (kelch domain containing 4) | 4 | 0.75 | 4435 | inactive
PGBD5 (piggyBac transposable element derived 5) | 1 | 0.9 | 4804 | inactive
PGBD5 (piggyBac transposable element derived 5) | 2 | 0.53 | 5531 | active
PGBD5 (piggyBac transposable element derived 5) | 3 | 0.94 | 5904 | inactive
PGBD5 (piggyBac transposable element derived 5) | 4 | 0.56 | 7221 | active
GLB1 (galactosidase beta 1) | 1 | 0.91 | 5974 | inactive
GLB1 (galactosidase beta 1) | 2 | 0.4 | 4532 | active
GLB1 (galactosidase beta 1) | 3 | 0.84 | 5653 | inactive
GLB1 (galactosidase beta 1) | 4 | 0.6 | 5961 | active
PI4KB (phosphatidylinositol 4-kinase beta) | 1 | 0.32 | 4092 | active
PI4KB (phosphatidylinositol 4-kinase beta) | 2 | 0.18 | 4598 | active
PI4KB (phosphatidylinositol 4-kinase beta) | 3 | 0.35 | 5954 | active
PI4KB (phosphatidylinositol 4-kinase beta) | 4 | 0.98 | 6630 | inactive
GATD3 (glutamine amidotransferase class 1 domain containing 3) | 1 | 0.84 | 6151 | inactive
GATD3 (glutamine amidotransferase class 1 domain containing 3) | 2 | 0.72 | 4428 | inactive
GATD3 (glutamine amidotransferase class 1 domain containing 3) | 3 | 0.78 | 6218 | inactive
GATD3 (glutamine amidotransferase class 1 domain containing 3) | 4 | 0.39 | 8664 | active
SLC25A17 | 1 | 0.63 | 3500 | inactive
SLC25A17 | 2 | 0.72 | 4415 | inactive
SLC25A17 | 3 | 1.06 | 5664 | inactive
SLC25A17 | 4 | 0.74 | 4306 | inactive
VAV3 (vav guanine nucleotide exchange factor 3) | 1 | 0.74 | 6780 | inactive
VAV3 (vav guanine nucleotide exchange factor 3) | 2 | 0.99 | 6532 | inactive
VAV3 (vav guanine nucleotide exchange factor 3) | 3 | 0.78 | 6674 | inactive
VAV3 (vav guanine nucleotide exchange factor 3) | 4 | 1.02 | 6630 | inactive

7 entries from above, showing only “migration relative to mock”:
GCGR (glucagon receptor) #2: 0.05
GCGR (glucagon receptor) #3: 0.03
GCGR (glucagon receptor) #4: 0.8
APOBEC3D (apolipoprotein B mRNA editing enzyme catalytic subunit 3D) #1: 0.57
APOBEC3D (apolipoprotein B mRNA editing enzyme catalytic subunit 3D) #2: -0.02
APOBEC3D (apolipoprotein B mRNA editing enzyme catalytic subunit 3D) #3: 0.51
APOBEC3D (apolipoprotein B mRNA editing enzyme catalytic subunit 3D) #4: 0.86

Continued:
Target gene | reagent | migration relative to mock | mean nuclei count | activity call
PCDHGA8 (protocadherin gamma subfamily A, 8) | 1 | 1.15 | 4568 | inactive
PCDHGA8 (protocadherin gamma subfamily A, 8) | 2 | 1.05 | 5530 | inactive
PCDHGA8 (protocadherin gamma subfamily A, 8) | 3 | 0.92 | 5398 | inactive
PCDHGA8 (protocadherin gamma subfamily A, 8) | 4 | 0.79 | 6120 | inactive
CHD4 (chromodomain helicase DNA binding protein 4) | 1 | 0.92 | 5688 | inactive
CHD4 (chromodomain helicase DNA binding protein 4) | 2 | 0.74 | 5814 | inactive
CHD4 (chromodomain helicase DNA binding protein 4) | 3 | 0.94 | 5884 | inactive
CHD4 (chromodomain helicase DNA binding protein 4) | 4 | 1.04 | 5538 | inactive
NXF1 (nuclear RNA export factor 1) | 1 | 0.9 | 7570 | inactive
NXF1 (nuclear RNA export factor 1) | 2 | 0.52 | 5506 | active
NXF1 (nuclear RNA export factor 1) | 3 | 0.56 | 6136 | active
NXF1 (nuclear RNA export factor 1) | 4 | 0.66 | 3834 | inactive
LILRB2 (leukocyte immunoglobulin like receptor B2) | 1 | 1.14 | 6918 | inactive
LILRB2 (leukocyte immunoglobulin like receptor B2) | 2 | 0.86 | 4780 | inactive
LILRB2 (leukocyte immunoglobulin like receptor B2) | 3 | 0.64 | 5804 | inactive
LILRB2 (leukocyte immunoglobulin like receptor B2) | 4 | 0.97 | 6912 | inactive
GARIN6 (golgi associated RAB2 interactor family member 6) | 1 | 1.19 | 6862 | inactive
GARIN6 (golgi associated RAB2 interactor family member 6) | 2 | 0.98 | 5006 | inactive
GARIN6 (golgi associated RAB2 interactor family member 6) | 3 | 0.94 | 6334 | inactive
GARIN6 (golgi associated RAB2 interactor family member 6) | 4 | 1 | 5808 | inactive
OPRPN (opiorphin prepropeptide) | 1 | 1.1 | 6550 | inactive
OPRPN (opiorphin prepropeptide) | 2 | 1.04 | 5038 | inactive
OPRPN (opiorphin prepropeptide) | 3 | 1.08 | 5308 | inactive
OPRPN (opiorphin prepropeptide) | 4 | 0.98 | 5280 | inactive
CARD10 (caspase recruitment domain family member 10) | 1 | 0.6 | 4363 | active
CARD10 (caspase recruitment domain family member 10) | 2 | 0.14 | 4800 | active
CARD10 (caspase recruitment domain family member 10) | 3 | 0.58 | 5608 | active
CARD10 (caspase recruitment domain family member 10) | 4 | 0.94 | 6529 | inactive
USP18 (ubiquitin specific peptidase 18) | 1 | 0.74 | 4253 | inactive
USP18 (ubiquitin specific peptidase 18) | 2 | 0.04 | 3534 | active
USP18 (ubiquitin specific peptidase 18) | 3 | 0.92 | 5924 | inactive
USP18 (ubiquitin specific peptidase 18) | 4 | 0.8 | 6394 | inactive
CALCOCO1 (calcium binding and coiled-coil domain 1) | 1 | 0.94 | 4680 | inactive
CALCOCO1 (calcium binding and coiled-coil domain 1) | 2 | 0.7 | 6282 | inactive
CALCOCO1 (calcium binding and coiled-coil domain 1) | 3 | 0.68 | 3213 | inactive
CALCOCO1 (calcium binding and coiled-coil domain 1) | 4 | 0.36 | 4210 | active
